From publication PMC2211394
These are yes or no findings as the source states them, for the method shown. In cells and extracts the contact can be indirect. Some entries that bind do so weakly or less than the wild type.

Sequences of proteins named here, by UniProt entry; tags and fusion partners are left off.
UniProt Q02248: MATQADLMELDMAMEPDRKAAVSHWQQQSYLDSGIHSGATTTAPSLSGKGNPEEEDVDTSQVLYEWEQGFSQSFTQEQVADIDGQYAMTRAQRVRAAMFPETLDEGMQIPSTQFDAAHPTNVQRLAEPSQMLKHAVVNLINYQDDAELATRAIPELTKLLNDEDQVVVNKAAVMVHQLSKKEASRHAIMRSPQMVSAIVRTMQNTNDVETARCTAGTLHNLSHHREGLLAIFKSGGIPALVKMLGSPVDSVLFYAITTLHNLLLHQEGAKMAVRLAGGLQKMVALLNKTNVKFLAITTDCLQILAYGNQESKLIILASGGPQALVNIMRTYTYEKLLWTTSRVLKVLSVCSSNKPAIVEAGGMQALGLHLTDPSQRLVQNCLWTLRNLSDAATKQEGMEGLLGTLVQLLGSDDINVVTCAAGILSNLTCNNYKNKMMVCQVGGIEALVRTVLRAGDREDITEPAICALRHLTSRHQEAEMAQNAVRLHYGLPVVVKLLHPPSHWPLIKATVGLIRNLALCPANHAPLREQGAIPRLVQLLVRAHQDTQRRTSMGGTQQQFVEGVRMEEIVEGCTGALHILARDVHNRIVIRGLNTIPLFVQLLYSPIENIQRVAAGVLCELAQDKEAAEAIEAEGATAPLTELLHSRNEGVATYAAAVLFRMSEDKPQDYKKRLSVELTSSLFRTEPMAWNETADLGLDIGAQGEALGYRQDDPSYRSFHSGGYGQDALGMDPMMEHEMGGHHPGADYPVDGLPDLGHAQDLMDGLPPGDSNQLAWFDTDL
UniProt P97474: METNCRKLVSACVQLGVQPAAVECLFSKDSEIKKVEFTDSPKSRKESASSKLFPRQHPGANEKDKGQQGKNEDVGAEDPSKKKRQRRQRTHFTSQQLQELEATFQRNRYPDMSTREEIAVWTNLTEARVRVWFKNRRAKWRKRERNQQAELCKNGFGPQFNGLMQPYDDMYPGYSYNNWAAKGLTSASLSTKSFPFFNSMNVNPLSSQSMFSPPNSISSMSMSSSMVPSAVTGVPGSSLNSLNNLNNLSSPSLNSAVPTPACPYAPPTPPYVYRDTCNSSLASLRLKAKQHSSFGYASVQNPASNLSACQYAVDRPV
UniProt O35160: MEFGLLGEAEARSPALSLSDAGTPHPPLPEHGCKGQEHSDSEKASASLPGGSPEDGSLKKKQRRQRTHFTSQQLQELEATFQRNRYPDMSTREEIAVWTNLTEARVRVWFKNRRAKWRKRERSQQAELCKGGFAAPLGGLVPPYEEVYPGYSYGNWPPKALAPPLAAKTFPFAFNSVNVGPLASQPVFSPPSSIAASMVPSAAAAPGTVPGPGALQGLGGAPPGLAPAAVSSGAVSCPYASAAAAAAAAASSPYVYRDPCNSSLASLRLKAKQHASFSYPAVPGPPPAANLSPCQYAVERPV

Molecular target: β-catenin (mouse (endogenous in primary E13.5 lung mesenchymal cells)) (UniProt Q02248)
Assay: co-IP; lysates of primary culture of WT lung mesenchymal cells immunoprecipitated with β-catenin antibodies, western blot for PITX2 or PITX3; cultures grown with 10 mM LiCl (for PITX2) or serum starved (for PITX3)

In the case of PITX2 (from UniProt P97474 1-317), the binding is reported as “binds”.
PITX3 (from UniProt O35160 1-302) was tested, and the binding was “no binding”.
